Measurements taken from PubChem BioAssay AID2685 (National Center for Advancing Translational Sciences (NCATS), 2010).
The other results are listed elsewhere or left out. The main result of the screen is listed elsewhere. These columns were measured beside it and carry no call. Compounds called inactive in the main read-out are mostly missing here. Potencies come from curve fits of mixed quality, noted in brackets.

Experiment: qHTS Assay for Lipid Storage Modulators in Drosophila S3 Cells;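 for cell number change: cells counted by Cell Tracker Red CMTPX staining in the red channel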
Conditions: BODIPY lipid droplet fluorescence, 18-24 h; for cell number change: measured here: cell count max response, cells fed with added oleic acid
Outline: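 Drosophila S3 cells loaded with oleic acid (400 uM, as added) and compounds at several concentrations; lipid droplets imaged by 488-nm laser-scanning cytometry, 500–530 nm intensity and object ratio to cell channel. Percent activity normalized to 20 uM Triacsin C.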

[1] = measured here: lipid fluorescence (Fed channel) AC50, cells fed with added oleic acid
[2] = measured here: cell number channel AC50, cells fed with added oleic acid

SMILES | cell number change [%] | AC50 [1] | AC50 [2]
COc1ccccc1C(=O)NCCC(=O)OCC(=O)Nc1ccc(S(N)(=O)=O)cc1 | 17 | 0.82 µM [falling, full curve] | 
COc1ccccc1/C=N/OCc1cc(C(C)=O)ccc1OC | 1.67 | 3.26 µM [rising, single point] | 
CCOC(=O)C1CCCN(C(=O)c2cnn3c(C(F)F)cc(-c4ccc(C)cc4)nc23)C1 (centres undefined) | -9.78 | 2.91 µM [rising, single point] | 
Cc1ccc(Cl)cc1NC(=O)CN1CCN(S(=O)(=O)N2CCC(C)CC2)CC1 | 6.3 |  | 
CC1(C)Cc2nc(-c3ccccc3)nc(SCC(=O)N3CCOCC3)c2CO1 | -20.7 |  | 
O=C(CN1C(=O)NC2(CCCc3ccccc32)C1=O)N1CCN(c2cccc(C(F)(F)F)c2)CC1 (centres undefined) | -20.5 | 20.6 µM [falling, single point] | 
NC(CSCc1ccccc1Cl)C(=O)O (centres undefined) |  |  | 0.731 µM [rising, single point]
Cc1nc2c(ccc3nc(NC(=O)c4ccc(S(=O)(=O)N(C)C)cc4)sc32)s1 | -16 |  | 
COc1cc(OC)c(OC)cc1/C=N/NC(=S)NCC1CCCO1 (centres undefined) | -16.1 | 3.26 µM [rising, partial curve] | 2.06 µM [rising, partial curve]
C=CCn1cnc2c(nnn2-c2ccc(Cl)cc2)c1=O | 26.2 |  | 
CCC(C)[C@H](NC(=O)NCCCc1ccccc1)C(=O)OC (some centres undefined) | 24.1 | 0.82 µM [falling, full curve, poor fit] | 
COc1ccc(Oc2nc(C)nc3c2oc2ccccc23)cc1 | -8.77 |  | 
CC(=O)NCCc1ccc(S(=O)(=O)N2CCCC2)cc1 | 3.58 |  | 
N#Cc1ccc(-n2nccc2-c2cnc3n(c2=O)CCS3)cc1 | 3.31 | 0.291 µM [falling, full curve] | 
CCOC(=O)C1=c2s/c(=C\c3cccnc3)c(=O)n2C(N)=C(C(=O)OC)C1c1cccnc1 (centres undefined) | 15.1 | 6.51 µM [rising, partial curve, poor fit] | 0.326 µM [rising, full curve, poor fit]
CCNC(=O)NC(=O)COC(=O)CCCc1nc2ccccc2s1 | -12.3 |  | 3.66 µM [falling, single point]
O=C(Nc1ccc(OC(F)(F)F)cc1)Oc1ccccc1N1CCCCC1 | 13.5 | 2.31 µM [rising, partial curve] | 
CN1CCN(Cc2c(C(=O)N/N=C/c3cccc(Br)c3)nnn2-c2nonc2N)CC1 | -9.68 | 29.1 µM [rising, single point] | 
Cc1ccc(C(=O)NNC2=NC(C)(C)Cc3ccccc32)cc1 | 11 | 0.116 µM [rising, full curve, poor fit] | 
CC(C)(C)c1ccc(NC(=O)CSc2nnc(-c3n[nH]c4ccccc34)o2)cc1 | -30.4 | 29.1 µM [falling, single point] | 29.1 µM [falling, single point]
COC(=O)c1sc(N2C(=O)C(O)=C(C(=O)c3ccc(C)o3)C2c2ccc(F)cc2)nc1C (centres undefined) | 169 | 6.51 µM [rising, single point] | 20.6 µM [rising, partial curve]

5 records picked at random from those above, as already listed:
SMILES | cell number change [%] | AC50 [1] | AC50 [2]
Cc1ccc(Cl)cc1NC(=O)CN1CCN(S(=O)(=O)N2CCC(C)CC2)CC1 | 6.3 |  | 
COc1ccccc1C(=O)NCCC(=O)OCC(=O)Nc1ccc(S(N)(=O)=O)cc1 | 17 | 0.82 µM [falling, full curve] | 
CCNC(=O)NC(=O)COC(=O)CCCc1nc2ccccc2s1 | -12.3 |  | 3.66 µM [falling, single point]
Cc1nc2c(ccc3nc(NC(=O)c4ccc(S(=O)(=O)N(C)C)cc4)sc32)s1 | -16 |  | 
O=C(CN1C(=O)NC2(CCCc3ccccc32)C1=O)N1CCN(c2cccc(C(F)(F)F)c2)CC1 (centres undefined) | -20.5 | 20.6 µM [falling, single point] | 

(more compounds)

SMILES | cell number change [%] | AC50 [1] | AC50 [2]
COc1ccc(NC(=O)/C=C2\SC(=O)NC2=O)cc1 | -15.9 |  | 0.651 µM [falling, partial curve, poor fit]
O=C(O)Cc1ccc(S(=O)(=O)Nc2ccccc2C(=O)O)cc1 | -15.7 | 9.2 µM [falling, partial curve, poor fit] | 0.731 µM [falling, single point]
COC(=O)C1CCCCN1C(=O)c1ccc(OC2CCN(C(C)=O)CC2)c(OC)c1 (centres undefined) | 15.2 |  | 
COCc1cc(CN2CCN(CCCc3ccccc3)C(CCO)C2)ccc1OC (centres undefined) | 9.71 | 14.6 µM [falling, partial curve] | 
O=C(COc1ncnc2c(Cl)cc(Cl)cc12)NCCC1=CCCCC1 | -4.98 | 0.058 µM [rising, full curve, poor fit] | 
CCOC(=O)N1CCN(CC(=O)Nc2ccc(F)cc2F)CC1 | 4.75 |  | 
Cc1ccccc1-c1nnc(-c2ccc(Br)cc2)o1 | -11.8 | 18.4 µM [rising, partial curve, poor fit] | 
CCCn1c(N)c(C(=O)CSc2n[nH]c(-c3ccc(C)cc3)n2)c(=O)[nH]c1=O |  |  | 0.116 µM [falling, full curve, poor fit]
CC(Oc1ccccc1)c1ccnn1S(=O)(=O)c1ccccc1 (centres undefined) | 29.2 | 4.61 µM [rising, full curve] | 
COc1ccccc1C(=O)Nc1cccc2cccnc12 | -9.07 |  | 
CCOc1ccccc1CN1CCNC(=O)C1CC(=O)NCCN1CCOC1=O (centres undefined) |  | 4.11 µM [falling, partial curve] | 
Cc1ccc(S(=O)(=O)N(Cc2ccccc2)c2ccccc2C(=O)N2CCCCC2)cc1 |  | 29.1 µM [rising, single point] | 
Cc1ccc(S(=O)(=O)Oc2ccc(N3C(=O)C4C5CCC(C5)C4C3=O)cc2)cc1 (centres undefined) | 9 | 4.11 µM [rising, single point] | 
CSc1nnc(-c2ccccc2)o1 | -1.17 |  | 
CCCCOc1cccc(C(=O)NC(=S)Nc2cccnc2)c1 | 31.4 |  | 11.6 µM [rising, single point]
Cc1cc2ncn(-c3ncccc3[N+](=O)[O-])c2cc1C | -0.833 | 0.058 µM [falling, partial curve, poor fit] | 
O=C(O)c1ccccc1C(=O)Nc1ccc(Nc2ccc([N+](=O)[O-])cc2[N+](=O)[O-])cc1 |  | 0.58 µM [falling, single point] | 
COc1ccccc1NC(=O)c1cc(S(=O)(=O)N2CCc3ccccc32)ccc1F | -10.9 |  | 
O=C(Nc1nc(-c2ccc(-c3ccccc3)cc2)cs1)c1cnccn1 | 100 | 6.51 µM [rising, single point] | 20.6 µM [rising, partial curve]
CC(=O)c1sc(NC(=O)c2cccc(C)c2)nc1C | 7.45 |  | 0.164 µM [rising, full curve, poor fit]
COC(=O)c1scc(C)c1N/N=C(\C)c1ccc(F)cc1F | 11 | 1.16 µM [falling, single point] | 

SMILES | cell number change [%] | AC50 [1] | AC50 [2]
CCOC(=O)c1ccccc1NC(=O)c1ccc(N(C)S(C)(=O)=O)cc1 | -32.3 |  | 7.31 µM [falling, full curve, poor fit]
CCOCCCn1cnc2c(c1=O)c1nc3ccccc3nc1n2-c1ccccc1 | -3.22 |  | 
CCOC(=O)N1CCN(c2c(-c3ccc(C(C)C)cc3)c(=O)c2=O)CC1 | 4.75 |  | 
OC(COC(c1ccc(Cl)cc1)c1ccc(Cl)cc1)CN1CCc2ccccc2C1 (centres undefined) | -43.4 | 20.6 µM [falling, single point] | 18.4 µM [falling, single point]
COc1ccc2[nH]c(=O)c(C(c3nnnn3C3CCCCC3)N3CCN(C)CC3)cc2c1 (centres undefined) | 20.8 | 23.1 µM [rising, single point] | 
O=C(Cc1ccc(S(=O)(=O)N2CCOCC2)s1)Nc1cc(Cl)ccc1Cl | 4.59 | 0.184 µM [falling, full curve, poor fit] | 
O=C(Cc1cccs1)Nc1ccc(Cl)c(S(=O)(=O)N2CCOCC2)c1 | 26.1 |  | 
COc1ccc(S(=O)(=O)N2CCCCC2)cc1NC(=O)CCNC(=O)c1ccccc1Cl | 9.56 |  | 
COC(=O)c1cccc(-n2nnnc2SCC(=O)Nc2nc3c(s2)CCCC3)c1 | -7.66 | 0.58 µM [rising, single point] | 0.517 µM [rising, full curve, poor fit]
COc1cc(/C=N/NC(=O)c2cc(-c3c(C)nn(-c4ccccc4)c3C)n[nH]2)ccc1O | -1.02 | 6.51 µM [falling, single point] | 6.51 µM [falling, single point]
O=C(O)COc1ccc(NC(=O)c2ccc3c(c2)C(=O)N(Cc2ccccc2)C3=O)cc1 | 3.96 |  | 3.66 µM [rising, single point]
CCN(CC)CC(C)OC(=O)c1ccccc1Cl (centres undefined) | -7.36 | 4.11 µM [falling, full curve, poor fit] | 
COc1c(Br)cc([N+](=O)[O-])c(OC)c1C(=O)NC(=O)Nc1nc(C)cc(C)n1 | 4.91 | 18.4 µM [rising, partial curve] | 
COc1ccc(N/C(N)=N/c2nc(CSc3ccc(C)cc3)cc(=O)[nH]2)cc1 | 10.1 |  | 0.184 µM [rising, partial curve]
Cc1c(NC(=O)CSc2nnc(-c3cccnc3)n2N)c(=O)n(-c2ccccc2)n1C | -3.37 | 0.731 µM [falling, full curve] | 0.731 µM [falling, full curve]
CN(C)CCCN(C(=O)CCc1ccccc1)c1nc2c(F)cccc2s1 | -27.8 | 32.6 µM [falling, partial curve, poor fit] | 
COc1cc(C(=O)Nc2ccc3c(c2)OCCO3)ccc1-n1cnnn1 | 24.1 | 2.59 µM [rising, partial curve] | 
O=C(NCCc1c[nH]c2ccccc12)Nc1cccc2ccccc12 |  | 29.1 µM [rising, single point] | 
CC1CCCC(C)N1C(=O)COC(=O)CNC(=O)c1ccc(Cl)cc1Cl (centres undefined) | -14.5 |  | 
Cc1ccc(CNC(N)=S)cc1 | -8.41 | 0.103 µM [falling, full curve, poor fit] | 
CCCn1c(N)c(N(C)C)c(=O)n(CC(=O)Nc2ccc(OC(F)(F)F)cc2)c1=O | 11.2 | 6.51 µM [rising, single point] | 
